The list shows a part of the results. Most values lie at the level of the controls, where differences are scatter.
What follows are compounds tested on ppGalNAc-T3 sensor (assay: T3 sensor activation Q score (MG/GFP ratio z-score vs DMSO controls) (SD units); higher = more sensor activation (inhibition of ppGalNAc-T3 glycosylation)). Settings: HEK293 sensor cells; 10 µM; 6 h.
Procedure: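 Cells were treated with compound at 10 uM for 6 h, then MG/GFP ratio was read by flow cytometry (10,000 cells per well, duplicate wells). Q = (R - R_neg)/SD_neg relative to DMSO vehicle controls; the signal rises when the glycosyltransferase is inhibited.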

| SMILES | T3 sensor activation Q score |
| --- | --- |
| O=C(O)C1CCN(c2nc(-c3ccc(Cl)cc3)cs2)CC1 | -0.3 |
| Cc1cccc(OCCNCCO)c1C | 0.275 |
| O=C(c1ccccc1Br)N1CCCCC1CO (stereo not given) | -0.38 |
| Cc1cc(C)c(NS(=O)(=O)Cc2ccccc2)c(C)c1 | -0.37 |
| CCN(CC)C(=O)C1CCCN(Cc2ccccc2)C1 (stereo not given) | 0.78 |
| Cc1ccc(O)c(C(=O)CC(=O)c2cccc(F)c2)c1 | -1.05 |
| Cc1c(N2C(=O)CCC2=O)c(=O)n(-c2ccccc2)n1C | 0.575 |
| CC(=O)C(=C(C)O)c1nc2ccccc2[nH]1 | 1.05 |
| O=S(=O)(O)c1cccc2cccnc12 | 2.85 |
| COc1ccc(Br)cc1CN1CCc2ccccc2C1 | 0.2 |
| CC(C)CNC(=O)c1ccc(Br)o1 | -0.09 |
| CCOc1cc(CN(C)CCN(C)C)ccc1O | -0.25 |
| COc1ccc(OCC(=O)NCCc2ccccc2)cc1 | -0.2 |
| NNC(=O)COc1ccc(Cl)cc1Cl | 0.185 |
| NC(=O)c1ccccc1-c1ccccc1C(=O)O | -0.14 |
| CCCCOc1ccc(NC(=O)c2ccc(F)cc2)cc1 | 0.76 |
| O=C(NCc1ccncc1)c1cccs1 | -0.595 |
| CCOc1ccc2nc(C)sc2c1 | -0.465 |
| COc1ccc2c(c1)CCC(C1(O)C(=O)Nc3ccccc31)C2=O (stereo not given) | 0.055 |
| CC(=O)C1=C(O)C(=O)N(CCO)C1c1ccc(Br)cc1 (stereo not given) | -0.155 |

| SMILES | T3 sensor activation Q score |
| --- | --- |
| O=C(O)c1ccccc1-c1ncc(-c2ccccc2)o1 | -0.34 |
| COc1cc(CN2CCCN(C)CC2)c([N+](=O)[O-])cc1OC | 0.6 |
| O=[N+]([O-])c1cccc(CN2CCC(Cc3ccccc3)CC2)c1 | -0.355 |
| O=C(c1ccc(Cl)cc1)n1cnc2ccccc21 | -0.56 |
| O=C(c1ccccc1)N1CCNCC1 | -0.245 |
| CCCCc1c(C(=O)O)cc(C)cc1C(=O)O | 2 |
| COc1ccc(CCC(C)Nc2ccc(F)cc2)cc1 (stereo not given) | -0.335 |
| O=C(Nc1ccccc1)Oc1c(Cl)cc(Cl)cc1Br | 0 |
| CCCNC(=O)N1c2ccccc2Sc2ccccc21 | 0.05 |
| O=C(C(c1ccccc1)c1ccccc1)N1CCOCC1 | -0.78 |
| Cc1ccn2cc(-c3ccc(Cl)cc3)nc2c1 | 0.17 |
| C=CCc1c(C)nc(SC)[nH]c1=O | -0.395 |
| CN1CCN(C(=O)CN(c2ccccc2F)S(C)(=O)=O)CC1 | -0.585 |
| CCOc1ccc2nc(NC(=O)c3ccc([N+](=O)[O-])c(C)c3)sc2c1 | -0.75 |
| COc1cccc(NC(=O)CCCc2ccccc2)c1 | -0.035 |
| O=S(=O)(Nc1ccccn1)c1ccc(Cl)cc1 | -0.405 |
| NC(=O)C1CCCN(Cc2ccc(F)cc2)C1 (stereo not given) | 0.505 |
| O=C(CCCOc1ccc(Cl)cc1Cl)N1CCOCC1 | 0.515 |
| COc1cccc(N(C(C)=O)C2=C(N3CCCC3)C(=O)c3ccccc3C2=O)c1 | -0.765 |
| CC(=O)Nc1ccc(OCc2ccccc2)cc1 | -0.41 |

Ordered by heavy-atom count (rising): part of the list above.

| SMILES | T3 sensor activation Q score |
| --- | --- |
| O=C(Nc1ccccc1)Oc1c(Cl)cc(Cl)cc1Br | 0 |
| CCCNC(=O)N1c2ccccc2Sc2ccccc21 | 0.05 |
| COc1cc(CN2CCCN(C)CC2)c([N+](=O)[O-])cc1OC | 0.6 |

Source: the supplement of paper PMC5407854, “Inhibitor of ppGalNAc-T3-mediated O-glycosylation blocks cancer cell invasiveness and lowers FGF23 levels” (eLife, 2017)
